Test results reported in the supplement of paper PMC10849652.
The list shows a part of the results.

Sequences of proteins named here, by UniProt entry; tags and fusion partners are left off. A change or cut given only in a name is not applied to a line headed by its entry.
UniProt P21980: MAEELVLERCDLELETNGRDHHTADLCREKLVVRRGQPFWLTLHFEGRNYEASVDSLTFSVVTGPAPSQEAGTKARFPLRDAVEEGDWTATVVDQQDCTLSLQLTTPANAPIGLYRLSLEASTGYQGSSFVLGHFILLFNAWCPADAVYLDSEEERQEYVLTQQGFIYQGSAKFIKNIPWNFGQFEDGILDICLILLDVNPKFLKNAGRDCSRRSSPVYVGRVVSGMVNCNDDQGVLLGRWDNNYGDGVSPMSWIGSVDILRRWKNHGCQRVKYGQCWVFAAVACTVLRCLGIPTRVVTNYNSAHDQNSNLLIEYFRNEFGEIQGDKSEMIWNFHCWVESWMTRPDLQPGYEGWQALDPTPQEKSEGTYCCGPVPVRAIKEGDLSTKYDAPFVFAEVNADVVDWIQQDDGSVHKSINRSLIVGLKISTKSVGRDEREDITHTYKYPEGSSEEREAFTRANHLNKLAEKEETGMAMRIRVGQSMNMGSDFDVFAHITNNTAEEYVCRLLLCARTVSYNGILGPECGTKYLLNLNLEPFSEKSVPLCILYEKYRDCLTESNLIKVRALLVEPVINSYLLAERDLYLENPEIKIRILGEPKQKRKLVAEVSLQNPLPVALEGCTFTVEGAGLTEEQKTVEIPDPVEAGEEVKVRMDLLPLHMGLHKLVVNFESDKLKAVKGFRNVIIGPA
UniProt P01137, whole entry, looked up: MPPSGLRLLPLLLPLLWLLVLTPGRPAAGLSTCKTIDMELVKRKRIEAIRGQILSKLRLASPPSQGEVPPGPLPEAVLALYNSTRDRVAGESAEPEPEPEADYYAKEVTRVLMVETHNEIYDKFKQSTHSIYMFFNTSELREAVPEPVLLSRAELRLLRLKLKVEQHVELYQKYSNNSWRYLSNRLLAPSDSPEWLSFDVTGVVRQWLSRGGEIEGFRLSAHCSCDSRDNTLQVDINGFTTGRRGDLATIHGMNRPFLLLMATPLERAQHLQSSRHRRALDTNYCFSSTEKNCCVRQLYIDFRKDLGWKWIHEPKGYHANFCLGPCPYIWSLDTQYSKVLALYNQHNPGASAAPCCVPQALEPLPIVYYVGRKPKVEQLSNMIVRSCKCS
UniProt O95551: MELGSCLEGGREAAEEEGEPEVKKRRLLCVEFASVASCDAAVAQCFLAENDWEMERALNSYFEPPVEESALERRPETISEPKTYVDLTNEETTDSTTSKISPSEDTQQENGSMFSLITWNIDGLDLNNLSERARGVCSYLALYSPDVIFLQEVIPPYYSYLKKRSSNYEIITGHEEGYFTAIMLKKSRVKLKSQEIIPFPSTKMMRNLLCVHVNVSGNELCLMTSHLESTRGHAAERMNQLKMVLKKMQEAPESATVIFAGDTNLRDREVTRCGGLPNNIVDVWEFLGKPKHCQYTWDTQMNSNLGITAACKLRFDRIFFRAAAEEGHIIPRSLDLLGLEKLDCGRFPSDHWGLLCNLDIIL
UniProt Q9NZ01: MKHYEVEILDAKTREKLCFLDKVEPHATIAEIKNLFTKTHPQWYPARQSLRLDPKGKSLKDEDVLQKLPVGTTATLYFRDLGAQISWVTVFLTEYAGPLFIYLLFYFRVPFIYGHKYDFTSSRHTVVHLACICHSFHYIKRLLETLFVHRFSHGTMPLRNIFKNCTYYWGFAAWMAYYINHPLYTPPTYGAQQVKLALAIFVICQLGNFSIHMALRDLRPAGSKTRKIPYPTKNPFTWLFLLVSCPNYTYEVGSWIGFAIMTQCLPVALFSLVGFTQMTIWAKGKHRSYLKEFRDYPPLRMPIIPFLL
UniProt Q9Y584: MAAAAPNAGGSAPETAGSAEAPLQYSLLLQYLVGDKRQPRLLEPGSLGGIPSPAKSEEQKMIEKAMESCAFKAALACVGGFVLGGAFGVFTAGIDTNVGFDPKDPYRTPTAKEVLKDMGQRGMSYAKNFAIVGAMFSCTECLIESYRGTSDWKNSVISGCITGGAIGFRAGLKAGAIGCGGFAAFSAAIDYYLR
UniProt Q86XR7, whole entry, looked up: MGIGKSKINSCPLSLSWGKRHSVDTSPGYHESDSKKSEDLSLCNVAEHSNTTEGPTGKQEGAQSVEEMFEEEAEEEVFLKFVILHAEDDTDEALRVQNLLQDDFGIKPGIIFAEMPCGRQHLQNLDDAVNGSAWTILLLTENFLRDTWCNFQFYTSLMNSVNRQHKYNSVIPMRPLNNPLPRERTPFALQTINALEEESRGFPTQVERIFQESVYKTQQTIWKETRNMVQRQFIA
UniProt P02787, whole entry, looked up: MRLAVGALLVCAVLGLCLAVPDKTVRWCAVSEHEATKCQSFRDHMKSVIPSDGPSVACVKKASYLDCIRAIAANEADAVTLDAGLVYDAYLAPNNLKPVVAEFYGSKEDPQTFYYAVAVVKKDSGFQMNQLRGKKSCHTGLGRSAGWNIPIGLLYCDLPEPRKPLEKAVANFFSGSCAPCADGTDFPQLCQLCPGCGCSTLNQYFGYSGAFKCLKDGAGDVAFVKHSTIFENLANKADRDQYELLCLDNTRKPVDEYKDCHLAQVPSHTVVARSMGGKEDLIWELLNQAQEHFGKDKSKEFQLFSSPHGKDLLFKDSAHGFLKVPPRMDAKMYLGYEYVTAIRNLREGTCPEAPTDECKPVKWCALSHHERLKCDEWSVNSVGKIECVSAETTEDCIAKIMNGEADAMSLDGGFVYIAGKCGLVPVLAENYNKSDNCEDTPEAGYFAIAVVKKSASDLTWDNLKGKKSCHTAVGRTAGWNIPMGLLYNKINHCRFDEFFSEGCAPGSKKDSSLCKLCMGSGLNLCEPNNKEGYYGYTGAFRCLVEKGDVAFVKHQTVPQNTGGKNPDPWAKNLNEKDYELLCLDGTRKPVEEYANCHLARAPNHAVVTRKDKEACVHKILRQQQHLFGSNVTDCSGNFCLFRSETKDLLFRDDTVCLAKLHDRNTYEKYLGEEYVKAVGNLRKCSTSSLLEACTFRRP
UniProt Q13769: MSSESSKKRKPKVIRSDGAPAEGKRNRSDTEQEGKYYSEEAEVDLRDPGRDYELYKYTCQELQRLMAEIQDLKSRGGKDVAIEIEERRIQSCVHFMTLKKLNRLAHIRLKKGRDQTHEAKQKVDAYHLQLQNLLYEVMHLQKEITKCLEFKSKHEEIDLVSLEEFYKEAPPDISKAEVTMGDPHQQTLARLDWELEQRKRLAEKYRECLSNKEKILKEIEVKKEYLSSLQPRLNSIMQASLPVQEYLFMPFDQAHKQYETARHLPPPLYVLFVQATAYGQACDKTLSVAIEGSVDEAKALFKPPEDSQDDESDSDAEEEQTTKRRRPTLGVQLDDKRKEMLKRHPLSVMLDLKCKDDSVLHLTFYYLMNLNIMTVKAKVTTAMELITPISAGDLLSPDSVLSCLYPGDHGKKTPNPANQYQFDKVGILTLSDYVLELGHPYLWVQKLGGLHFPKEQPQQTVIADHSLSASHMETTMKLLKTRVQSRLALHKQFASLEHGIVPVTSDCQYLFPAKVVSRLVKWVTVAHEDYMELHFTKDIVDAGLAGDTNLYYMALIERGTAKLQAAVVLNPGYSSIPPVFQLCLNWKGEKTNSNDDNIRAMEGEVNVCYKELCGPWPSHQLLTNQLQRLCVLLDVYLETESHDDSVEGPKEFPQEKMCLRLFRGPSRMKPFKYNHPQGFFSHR
UniProt Q96BS2: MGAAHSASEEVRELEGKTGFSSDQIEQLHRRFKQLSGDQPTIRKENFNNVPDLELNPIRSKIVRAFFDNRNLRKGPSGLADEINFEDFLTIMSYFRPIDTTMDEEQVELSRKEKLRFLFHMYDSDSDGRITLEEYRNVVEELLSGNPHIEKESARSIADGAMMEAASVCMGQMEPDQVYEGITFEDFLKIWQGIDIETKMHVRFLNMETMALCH
UniProt O14776: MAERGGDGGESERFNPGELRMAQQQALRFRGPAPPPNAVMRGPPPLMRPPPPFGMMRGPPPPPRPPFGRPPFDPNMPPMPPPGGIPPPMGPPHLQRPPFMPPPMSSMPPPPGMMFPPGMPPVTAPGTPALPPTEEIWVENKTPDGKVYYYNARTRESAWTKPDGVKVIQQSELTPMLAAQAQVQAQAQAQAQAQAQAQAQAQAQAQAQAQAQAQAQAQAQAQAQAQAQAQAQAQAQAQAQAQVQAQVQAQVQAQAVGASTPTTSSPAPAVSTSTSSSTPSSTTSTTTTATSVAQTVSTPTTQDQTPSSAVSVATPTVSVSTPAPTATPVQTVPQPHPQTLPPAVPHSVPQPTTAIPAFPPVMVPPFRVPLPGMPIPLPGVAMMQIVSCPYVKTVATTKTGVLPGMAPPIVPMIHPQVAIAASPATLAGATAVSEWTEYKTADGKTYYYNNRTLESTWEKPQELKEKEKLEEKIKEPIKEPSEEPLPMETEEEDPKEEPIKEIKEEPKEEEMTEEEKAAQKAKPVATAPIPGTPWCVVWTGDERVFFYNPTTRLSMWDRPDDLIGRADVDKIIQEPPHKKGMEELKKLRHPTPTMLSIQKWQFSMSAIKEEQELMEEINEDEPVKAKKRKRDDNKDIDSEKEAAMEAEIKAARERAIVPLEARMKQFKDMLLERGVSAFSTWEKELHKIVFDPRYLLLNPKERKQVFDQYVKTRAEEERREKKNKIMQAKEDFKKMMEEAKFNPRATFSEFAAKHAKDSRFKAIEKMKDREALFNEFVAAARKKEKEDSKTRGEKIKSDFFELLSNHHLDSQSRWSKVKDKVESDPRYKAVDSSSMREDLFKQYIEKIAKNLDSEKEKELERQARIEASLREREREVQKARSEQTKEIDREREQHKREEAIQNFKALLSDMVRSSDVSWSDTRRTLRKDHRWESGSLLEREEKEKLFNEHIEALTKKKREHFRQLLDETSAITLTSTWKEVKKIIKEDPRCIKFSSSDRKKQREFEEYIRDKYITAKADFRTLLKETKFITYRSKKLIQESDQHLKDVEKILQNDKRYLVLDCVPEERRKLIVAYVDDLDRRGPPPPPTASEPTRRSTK
UniProt Q9Y6I9: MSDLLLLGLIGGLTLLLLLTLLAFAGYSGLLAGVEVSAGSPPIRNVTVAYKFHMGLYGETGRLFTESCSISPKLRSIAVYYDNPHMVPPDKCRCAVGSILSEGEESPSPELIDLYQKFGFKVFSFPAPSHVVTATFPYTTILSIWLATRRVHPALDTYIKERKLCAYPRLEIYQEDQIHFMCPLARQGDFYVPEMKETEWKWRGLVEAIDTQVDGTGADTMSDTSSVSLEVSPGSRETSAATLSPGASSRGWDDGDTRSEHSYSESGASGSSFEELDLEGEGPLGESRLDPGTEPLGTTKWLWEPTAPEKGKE
UniProt P62072: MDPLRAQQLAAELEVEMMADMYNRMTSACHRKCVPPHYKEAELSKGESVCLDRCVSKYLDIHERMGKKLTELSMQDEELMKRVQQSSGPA
UniProt O60220: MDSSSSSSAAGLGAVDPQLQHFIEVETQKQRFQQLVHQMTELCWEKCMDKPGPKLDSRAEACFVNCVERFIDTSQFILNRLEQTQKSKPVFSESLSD
UniProt Q99595: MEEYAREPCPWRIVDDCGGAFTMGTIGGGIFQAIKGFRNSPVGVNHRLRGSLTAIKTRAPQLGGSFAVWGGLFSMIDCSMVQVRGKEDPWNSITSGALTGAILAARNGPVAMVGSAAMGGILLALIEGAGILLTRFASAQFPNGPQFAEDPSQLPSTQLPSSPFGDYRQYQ
UniProt P02786, whole entry, looked up: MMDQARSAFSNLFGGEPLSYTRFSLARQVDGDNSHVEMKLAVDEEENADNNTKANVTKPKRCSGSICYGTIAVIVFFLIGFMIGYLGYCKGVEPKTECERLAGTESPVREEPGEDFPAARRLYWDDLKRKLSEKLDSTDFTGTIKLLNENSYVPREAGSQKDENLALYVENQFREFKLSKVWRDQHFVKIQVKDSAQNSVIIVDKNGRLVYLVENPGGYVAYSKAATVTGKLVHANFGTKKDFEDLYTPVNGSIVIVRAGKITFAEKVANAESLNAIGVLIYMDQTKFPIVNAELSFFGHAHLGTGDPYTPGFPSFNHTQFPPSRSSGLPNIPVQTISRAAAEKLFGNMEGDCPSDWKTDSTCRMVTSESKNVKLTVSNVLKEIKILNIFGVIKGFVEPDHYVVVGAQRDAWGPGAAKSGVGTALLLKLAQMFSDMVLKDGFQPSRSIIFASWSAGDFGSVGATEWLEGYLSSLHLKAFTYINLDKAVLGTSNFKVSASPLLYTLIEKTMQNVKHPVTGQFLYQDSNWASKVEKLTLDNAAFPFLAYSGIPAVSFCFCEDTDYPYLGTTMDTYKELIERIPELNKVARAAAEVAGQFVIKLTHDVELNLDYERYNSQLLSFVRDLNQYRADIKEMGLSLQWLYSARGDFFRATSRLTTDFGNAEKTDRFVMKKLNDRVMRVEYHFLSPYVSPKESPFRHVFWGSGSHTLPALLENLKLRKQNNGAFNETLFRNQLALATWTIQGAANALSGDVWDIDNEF
UniProt Q9NWX6: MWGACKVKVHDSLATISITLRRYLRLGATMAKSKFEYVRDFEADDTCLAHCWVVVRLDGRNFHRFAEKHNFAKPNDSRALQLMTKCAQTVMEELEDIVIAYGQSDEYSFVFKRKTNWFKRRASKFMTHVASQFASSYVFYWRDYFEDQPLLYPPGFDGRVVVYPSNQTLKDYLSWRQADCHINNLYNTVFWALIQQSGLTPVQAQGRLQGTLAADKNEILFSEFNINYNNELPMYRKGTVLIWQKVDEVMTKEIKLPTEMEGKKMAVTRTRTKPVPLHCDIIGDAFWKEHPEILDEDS

Compound: COc1cc(Nc2ncc3c(n2)-c2ccc(Cl)cc2C(c2c(F)cccc2OC)=NC3)ccc1C(=O)O [alisertib]
Assay: log2 fold change, soluble protein after heating vs DMSO (PISA); higher = thermal stabilisation; K562 cells, 10 uM, 30 min; active = over 0.2 and 3.5 SD of the protein, either way, in both replicates (recomputed)
How it was run: (§1)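 Soluble protein was defined as the supernatant after 21,000xg for 90 min. It came from K562 cells at 2×10^6 cells/mL given 10 μM compound for 30 min, heated in aliquots for 3 min across 48°C-58°C, pooled, and extracted in PBS with 0.5% NP-40 at 4°C, and was quantified by TMTpro 16plex LC-MS/MS with equalised channel sums. Thermal stability against control samples, from duplicates, is reported as log2 fold change.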

log2 fold change, inactive:
TIAL1 isoform 2 (UniProt Q01085) -0.064
TLE3 isoform 4 (UniProt Q04726) -0.048
TGM2 (UniProt P21980) -0.047
TGFB1 (UniProt P01137) -0.037
TDP2 isoform 2 (UniProt O95551) -0.051
TECR (UniProt Q9NZ01) -0.028
TIMM22 (UniProt Q9Y584) 0.007
THBS4 (UniProt P35443) -0.003
TERF2 (UniProt Q15554) 0.01
TICAM2 isoform 2 (UniProt Q86XR7) -0.022
TIMM13 (UniProt Q9Y5L4) -0.006
TBL1X (UniProt O60907) -0.021
TF (UniProt P02787) -0.092
THOC5 (UniProt Q13769) -0.089
TBC1D15 isoform 3 (UniProt Q8TC07) -0.052
TESC (UniProt Q96BS2) 0.105
TCERG1 (UniProt O14776) 0.043

Compound: COc1cc2nc(-c3cc(F)ccc3O)nc(N[C@@H]3CNC[C@H]3C(C)(C)O)c2cc1OC
Assay: as above
How it was run: as §1

log2 fold change, inactive:
TEX264 (UniProt Q9Y6I9) 0.163
THOP1 (UniProt P52888) 0.054
TGFBRAP1 (UniProt Q8WUH2) 0.092
TIMM9 (UniProt Q9Y5J7) -0.089
TCF3 (UniProt P15923) 0.028
TIMM10 (UniProt P62072) -0.12
TFR2 (UniProt Q9UP52) 0.011
TBL1XR1 (UniProt Q9BZK7) -0.018
TBC1D9B (UniProt Q66K14) -0.026
TKFC (UniProt Q3LXA3) 0.073
TGFBR1 isoform 2 (UniProt P36897) 0.06
TCOF1 isoform 4 (UniProt Q13428) -0.051
TIMM8A (UniProt O60220) -0.085
THUMPD2 (UniProt Q9BTF0) 0.006
TFB2M (UniProt Q9H5Q4) 0.006
TIMM17A (UniProt Q99595) 0.006
TFRC (UniProt P02786) 0.017
THG1L (UniProt Q9NWX6) 0.033
TBCC (UniProt Q15814) -0.007
TES (UniProt Q9UGI8) -0.01
TELO2 (UniProt Q9Y4R8) -0.122
TBCA (UniProt O75347) 0.013
TBC1D4 (UniProt O60343) -0.004
TIAL1 isoform 2 (UniProt Q01085) 0.076
TLE3 isoform 4 (UniProt Q04726) -0.039
TGM2 (UniProt P21980) 0.032
TGFB1 (UniProt P01137) -0.004
TDP2 isoform 2 (UniProt O95551) 0.023
TECR (UniProt Q9NZ01) -0.102
TIMM22 (UniProt Q9Y584) 0.015
THBS4 (UniProt P35443) -0.081
TERF2 (UniProt Q15554) -0.015
TICAM2 isoform 2 (UniProt Q86XR7) -0.009
TBL1X (UniProt O60907) 0.044
TF (UniProt P02787) 0.301
THOC5 (UniProt Q13769) 0.028
TBC1D15 isoform 3 (UniProt Q8TC07) -0.065
TESC (UniProt Q96BS2) 0.249
TCERG1 (UniProt O14776) 0.054

log2 fold change, active:
TIMM13 (UniProt Q9Y5L4) -0.3
